PMC12040169 (PLOS Biology, 2025)
The list shows a part of the results.

What follows are compounds tested on T1, CTL2-GFP (C. trachomatis L2/434/Bu, GFP-expressing). Details: bulk GFP, single well; 28.5 h, 10 µM; inhibitor.
T1 construct: L2/434/Bu, GFP-expressing
Set-up: species or system HeLa; Intracellular C. trachomatis growth in HeLa cells, bulk GFP fluorescence relative to DMSO

SMILES | % of control remaining [%]
O=C(O)/C=C/C(=O)NNC(=O)c1ccccc1O [CBK261789] | 122.952
OCCC1CCCCN1c1cncc(C2CCOC2)n1 (centres unmarked) [CBK066127] | 101.318
O=S(=O)(c1csc2ccccc12)N1CCOCC1 [CBK062401] | 118.858
Cc1cc(C)c2sc(NC(=O)c3ccccc3)nc2c1 [CBK287614] | 127.058
Cn1cncc1CN(CCCn1ccnc1)Cc1ccccc1F [CBK282960] | 125.117
N=C(N)Nc1nc(-c2ccccc2)c2cc(F)ccc2n1 [CBK267350] | 42.6236
O=C(Nc1ccc(O)cc1C(=O)O)c1ccc2c(c1)C(=O)N(Cc1ccco1)C2=O [CBK267418] | 91.7412
CC(=O)OCC(=O)N1CCC(N(C)Cc2ccc(-c3ccc(S(C)(=O)=O)cc3)nc2)CC1 [CBK165268] | 98.7723
O=C(Cc1c[nH]c2ccccc12)N1CCC2(CCCN(Cc3c(F)cccc3F)C2)C1 (centres unmarked) [CBK132031] | 124.753
O=C(OCc1ccccc1)N1CCN(C(=O)c2cc3cc(Br)ccc3[nH]2)CC1 [CBK154991] | 88.0275
O=C(NCc1cccc2ccccc12)N1CCCCC1CO (centres unmarked) [CBK156167] | 109.197
COc1cc(C)c(Cl)cc1S(=O)(=O)NCCCN1CCOCC1 [CBK269044] | 119.239
Cc1nn(-c2ccc(F)cc2)c2[nH]c(=O)c(CNC(C)(C)C)cc12 [CBK283120] | 105.645
COc1ccc(-c2nnc3c4ccccc4c(C)nn23)cc1S(=O)(=O)NC(C)c1ccccc1 (centres unmarked) [CBK266605] | 163.996
Cc1cccc(C)c1NC(=O)CC(CN1CCN(Cc2c(C)noc2C)CC1)C(=O)O (centres unmarked) [CBK286715] | 120.411
O=C(Nc1ccc(-c2nc3ccc(-c4nc5ccc(NC(=O)c6cccc7ccccc67)cc5[nH]4)cc3[nH]2)cc1)c1cccc2ccccc12 [CBK261161] | 109.821
Cc1nn(C)cc1S(=O)(=O)N1CCn2cccc2C1C(C)C (centres unmarked) [CBK282787] | 104.586
COc1cc(/C=C2\SC(=S)N(c3cccc(C(=O)O)c3)C2=O)cc([N+](=O)[O-])c1O [CBK265281] | 108.414
Cc1cccc(C(=O)Nc2nc3ccc(S(C)(=O)=O)cc3s2)c1 [CBK287323] | 128.472

Arranged by molar mass (rising): part of the list above.
SMILES | % of control remaining [%]
N=C(N)Nc1nc(-c2ccccc2)c2cc(F)ccc2n1 [CBK267350] | 42.6236
O=S(=O)(c1csc2ccccc12)N1CCOCC1 [CBK062401] | 118.858
COc1ccc(-c2nnc3c4ccccc4c(C)nn23)cc1S(=O)(=O)NC(C)c1ccccc1 (centres unmarked) [CBK266605] | 163.996

Next entries

SMILES | % of control remaining [%]
Cc1cccc(S(=O)(=O)N2CCN(C)CC2)c1 [CBK097893] | 101.28
COc1ccccc1CN1CC[C@H]2[C@@H](C1)[C@H](c1ccsc1)CN2C(=O)c1ccccc1 [CBK285617] | 102.822
Cc1cc(Cl)c(S(=O)(=O)Nc2cccnc2)cc1OCC(N)=O [CBK266523] | 179.8
CCOC(=O)c1noc2nc(C)n(Cc3nc(-c4ccccc4)oc3C)c(=O)c12 [CBK294400] | 137.827
Cn1nnc2cc(C(=O)NCCN3CCCCC3CO)ccc21 (centres unmarked) [CBK307268] | 133.718
CCC(C)NC(=O)C1(Cc2cccc(-c3ccc(OC)cc3)c2)CCOCC1 (centres unmarked) [CBK286513] | 101.436
CS(=O)(=O)N1CC2(CCN(Cc3cccc4cccnc34)CC2)c2ccccc21 [CBK136955] | 120.789
COc1cc(S(=O)(=O)N2CCCN(S(=O)(=O)c3cc(OC)c(Cl)cc3OC)CC2)c(OC)cc1Cl [CBK266489] | 136.775
COc1ccc(C2CCN(CC(=O)NC3CCCC3)CC2)cc1 [CBK283565] | 103.241
COCC(C)NC(=O)CCn1ccc2ccncc21 (centres unmarked) [CBK285172] | 124.055
Cc1nc(C)n(CC2CCCN(Cc3cn4ccccc4n3)C2)n1 (centres unmarked) [CBK304028] | 133.449
O=C(Nc1sccc1C(=O)N1CCOCC1)C(Sc1ccccc1)c1ccccc1 (centres unmarked) [CBK268165] | 95.7644
COc1ccc2c(C)c(CCC(=O)N(C)CC(=O)O)c(=O)oc2c1 [CBK286731] | 131.388
CC1(C)CCCC2=C1CC(C(=O)O)C(C(=O)O)C2 (centres unmarked) [CBK272329] | 122.585
CCc1nn(CCN2CCCC2)c(=O)c2cc3sccc3n12 [CBK284075] | 154.455
CC(C)(C)CNc1ccc(S(=O)(=O)N2CCOC2=O)cc1 [CBK028347] | 95.5486
CCCc1cc(C2CCCCCN2C(=O)c2c(C)noc2C)no1 (centres unmarked) [CBK284919] | 123.74
O=C(CCN1C(=O)c2ccccc2C1=O)N(CCO)Cc1ccccc1 [CBK265565] | 88.0563
CC1=C[C@@H](CO)[C@H](C(C)C)C[C@H]1CC(=O)NCc1cccnc1 [CBK289218] | 130.723
